This is an account of results in paper PMC3621867.

By UniProt entry, the sequences of proteins in these tests, tags left out.
UniProt Q86YC2: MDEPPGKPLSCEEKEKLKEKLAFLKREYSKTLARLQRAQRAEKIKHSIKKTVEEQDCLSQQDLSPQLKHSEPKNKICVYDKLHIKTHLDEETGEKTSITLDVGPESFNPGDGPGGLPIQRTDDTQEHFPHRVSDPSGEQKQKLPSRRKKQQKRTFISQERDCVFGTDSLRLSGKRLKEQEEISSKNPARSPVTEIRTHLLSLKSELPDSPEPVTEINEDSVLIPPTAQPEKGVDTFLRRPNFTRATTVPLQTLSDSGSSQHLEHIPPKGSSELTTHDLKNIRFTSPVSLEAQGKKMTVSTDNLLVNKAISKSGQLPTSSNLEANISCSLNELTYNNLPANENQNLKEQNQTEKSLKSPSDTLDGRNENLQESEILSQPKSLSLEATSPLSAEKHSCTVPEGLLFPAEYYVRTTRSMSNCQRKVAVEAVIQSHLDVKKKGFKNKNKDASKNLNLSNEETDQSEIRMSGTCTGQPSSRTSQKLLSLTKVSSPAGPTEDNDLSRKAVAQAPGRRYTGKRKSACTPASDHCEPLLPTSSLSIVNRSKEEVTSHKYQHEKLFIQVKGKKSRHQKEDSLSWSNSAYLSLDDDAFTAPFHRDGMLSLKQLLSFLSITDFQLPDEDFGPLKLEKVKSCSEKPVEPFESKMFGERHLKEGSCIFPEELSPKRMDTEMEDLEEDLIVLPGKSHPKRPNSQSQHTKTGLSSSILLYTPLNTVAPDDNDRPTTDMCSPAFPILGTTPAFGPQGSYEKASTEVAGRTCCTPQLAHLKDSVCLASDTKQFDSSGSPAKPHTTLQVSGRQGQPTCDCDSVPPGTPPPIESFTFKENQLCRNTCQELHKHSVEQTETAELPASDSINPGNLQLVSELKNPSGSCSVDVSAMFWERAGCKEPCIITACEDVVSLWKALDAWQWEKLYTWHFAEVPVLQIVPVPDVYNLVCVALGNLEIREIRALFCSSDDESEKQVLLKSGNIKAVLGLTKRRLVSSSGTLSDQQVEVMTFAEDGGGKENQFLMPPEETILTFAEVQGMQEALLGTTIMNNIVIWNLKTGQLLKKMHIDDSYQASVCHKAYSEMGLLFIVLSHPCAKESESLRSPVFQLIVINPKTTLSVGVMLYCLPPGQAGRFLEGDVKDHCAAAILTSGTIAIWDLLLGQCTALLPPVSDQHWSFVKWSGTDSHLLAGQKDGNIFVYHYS
UniProt Q9UBU8: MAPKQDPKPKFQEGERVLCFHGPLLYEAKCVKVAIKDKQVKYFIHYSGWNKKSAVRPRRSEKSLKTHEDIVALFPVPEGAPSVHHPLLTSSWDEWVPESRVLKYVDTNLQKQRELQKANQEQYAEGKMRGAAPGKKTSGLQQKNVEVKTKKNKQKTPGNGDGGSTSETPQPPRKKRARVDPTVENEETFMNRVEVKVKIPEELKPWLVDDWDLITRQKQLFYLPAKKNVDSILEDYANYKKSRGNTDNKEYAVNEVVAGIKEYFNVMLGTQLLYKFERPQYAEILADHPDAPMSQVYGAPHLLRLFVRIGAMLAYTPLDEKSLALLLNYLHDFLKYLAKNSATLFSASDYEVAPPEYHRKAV

These are yes or no findings as the source states them, for the method shown. In cells and extracts the contact can be indirect. A yes stands for co-enrichment or nearness to the bait. Other partners may have been found.

The target in this test is FLAG-HA-double tagged PALB2 (human) (UniProt Q86YC2). The experiment in a line: affinity purification with mass spectrometry; tandem affinity purification (FLAG, HA) of tagged PALB2 from MNase-solubilized (90 min) nuclear fraction of HeLa S3 cells, LC-MS/MS; cells untreated or treated with hydroxyurea or mitomycin C.

MRG15 (from UniProt Q9UBU8 1-362): the binding entry is listed as “binds”.
